The target in test [1] is glucocorticoid receptor (transfected, HEK293) (UniProt P04150). As to the kind of experiment: co-IP; HEK293 cells transfected with LUMAN constructs and GR; cells crosslinked with 1% paraformaldehyde for 10 min, lysed in RIPA buffer; CREB3 or GR (G-5) antibody, Protein A/G beads, IgG as negative control; Western blot. A general note: Immunoblotting shows a protein as a band on a membrane.

Chains of the proteins cited; added tags and fusions are not shown.
UniProt P04150: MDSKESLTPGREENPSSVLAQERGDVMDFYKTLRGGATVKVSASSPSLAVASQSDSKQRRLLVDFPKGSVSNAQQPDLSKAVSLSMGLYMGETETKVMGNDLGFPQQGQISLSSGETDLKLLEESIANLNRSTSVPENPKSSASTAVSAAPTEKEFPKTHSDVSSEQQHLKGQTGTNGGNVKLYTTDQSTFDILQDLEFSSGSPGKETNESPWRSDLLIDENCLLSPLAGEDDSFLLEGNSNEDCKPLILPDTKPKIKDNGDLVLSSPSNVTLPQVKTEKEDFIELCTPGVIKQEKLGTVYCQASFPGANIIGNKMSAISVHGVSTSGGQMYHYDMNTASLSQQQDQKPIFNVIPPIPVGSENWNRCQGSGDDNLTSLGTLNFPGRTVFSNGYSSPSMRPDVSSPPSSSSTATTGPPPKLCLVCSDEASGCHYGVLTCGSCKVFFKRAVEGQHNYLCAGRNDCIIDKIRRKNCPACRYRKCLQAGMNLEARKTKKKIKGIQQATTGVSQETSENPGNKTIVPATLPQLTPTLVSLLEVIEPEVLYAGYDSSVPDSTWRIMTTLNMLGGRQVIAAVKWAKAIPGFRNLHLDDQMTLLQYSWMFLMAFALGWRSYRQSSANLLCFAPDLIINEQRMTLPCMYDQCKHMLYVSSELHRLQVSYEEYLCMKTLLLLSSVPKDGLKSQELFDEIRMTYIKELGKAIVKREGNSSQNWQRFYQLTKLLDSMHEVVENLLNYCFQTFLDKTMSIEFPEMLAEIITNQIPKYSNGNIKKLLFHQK
UniProt P06537: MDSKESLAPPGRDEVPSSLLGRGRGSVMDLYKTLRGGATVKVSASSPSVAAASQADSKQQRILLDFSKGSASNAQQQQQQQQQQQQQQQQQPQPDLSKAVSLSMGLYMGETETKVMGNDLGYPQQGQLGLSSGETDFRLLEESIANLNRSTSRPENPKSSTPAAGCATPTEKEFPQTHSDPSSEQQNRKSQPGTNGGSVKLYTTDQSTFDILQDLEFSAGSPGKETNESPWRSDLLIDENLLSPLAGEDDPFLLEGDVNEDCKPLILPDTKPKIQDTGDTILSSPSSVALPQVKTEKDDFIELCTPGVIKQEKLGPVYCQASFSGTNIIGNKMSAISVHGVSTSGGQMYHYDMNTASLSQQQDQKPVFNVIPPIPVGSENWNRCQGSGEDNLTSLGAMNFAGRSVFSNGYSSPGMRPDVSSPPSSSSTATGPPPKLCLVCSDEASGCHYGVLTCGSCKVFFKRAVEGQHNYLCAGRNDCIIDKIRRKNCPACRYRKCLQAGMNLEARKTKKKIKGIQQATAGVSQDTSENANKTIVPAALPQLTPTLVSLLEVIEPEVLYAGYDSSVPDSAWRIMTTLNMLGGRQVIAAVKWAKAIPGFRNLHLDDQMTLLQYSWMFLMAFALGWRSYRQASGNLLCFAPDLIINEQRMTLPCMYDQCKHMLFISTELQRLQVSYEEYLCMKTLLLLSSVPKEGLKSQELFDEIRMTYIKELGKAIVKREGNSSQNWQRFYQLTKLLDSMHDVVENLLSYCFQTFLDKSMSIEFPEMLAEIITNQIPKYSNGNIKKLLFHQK

Test [2] deals with glucocorticoid receptor (endogenous, m-hippo-E18 cells) (mouse (endogenous in m-hippo-E18)) (UniProt P06537). Kind of test: co-IP; endogenous proteins in mHippo-E18 cells; CREB3 antibody (Proteintech) and GR antibody (G-5) used to pull down their respective proteins, IgG as negative control.

No constants are given. Whether binding was seen depends on the method and setting. In cells and extracts the contact can be indirect. Some entries that bind do so weakly or less than the wild type.

B1: full-length LUMAN (transfected, HEK293) (protein, UniProt O43889 1-371)
chain: MELELDAGDQDLLAFLLEESGDLGTAPDEAVRAPLDWALPLSEVPSDWEVDDLLCSLLSPPASLNILSSSNPCLVHHDHTYSLPRETVSMDLESESCRKEGTQMTPQHMEELAEQEIARLVLTDEEKSLLEKEGLILPETLPLTKTEEQILKRVRRKIRNKRSAQESRRKKKVYVGGLESRVLKYTAQNMELQNKVQLLEEQNLSLLDQLRKLQAMVIEISNKTSSSSTCILVLLVSFCLLLVPAMYSSDTRGSLPAEHGVLSRQLRALPSEDPYQLELPALQSEVPKDSTHQWLDGSDCVLQAPGNTSCLLHYMPQAPSAEPPLEWPFPDLFSEPLCRGPILPLQANLTRKGGWLPTGSPSVILQDRYSG
As for B1, in test [1], the binding result is given as “binds”.

B2: LUMAN/CREB3 (endogenous, m-hippo-E18 cells) (protein, UniProt Q61817 1-404)
chain: MDPGGQDLLALDPGDQDLLGFLLEESGDLWAATEPDVKASLDLELSPSENSVQELSDWEVEDLLSSLLSPSVSRDVLGSSSSSILHDHNYSLPQEHVSIDLGECEMISCRGRRELTGLAGSTFPFADTESFEKEGFHVTPLPGEERAAEQEMSRLILTEEEKKLLEKEGLTLPSTLPLTKVEEQVLKRVRRKIRNKRAAQESRKKKKVYVVGLESRVLKYTAQNRELQNKVQRLEEQNLSLLDQLRKLQAMVIEIANKTSSGSTCVLVLVFSFCLLLVPAMYSSDARGSVPAEYVVLHRKLRALPSEDDHQPKPSALSSELPMDSTHQSLDSSEHMFLVSSNFSCVLYHAPQAEQPLHWPLWDLSSEMLFSDSNLLLQANLSESEGWQPNHSPSLVIFQGRYSG
Take B2: in test [2], the binding entry is on record as “binds”.

The record behind these values is paper PMC6179040.
